Values from PubChem BioAssay AID1224828 (NIAID, 2016).

- Assay: 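Regulators linking TLR4 signalling to p65 nuclear translocation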 (primary screen)
- Cells: mouse RAW264.7 G9 macrophage reporter cells (GFP-p65, Tnf promoter-mCherry)
- Reagents: siRNA pool against mouse genes, 100 nM
- Time to read-out: 2 days siRNA transfection, then 40 min LPS before fixation
- Challenge: LPS (Salmonella minnesota R595) at 10 ng/ml
- Read-out: 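Imaged p65 nuclear translocation ratio, normalised to the plate median, converted to robust z-scores and averaged across two replicates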
- Direction: p65 translocation robust z-score: higher = more nuclear NF-kappaB p65 after LPS than the plate median; nuclear/cytoplasmic p65 ratio: higher = more nuclear NF-kappaB p65
- Hit rule: 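Active if robust z is above 3.3 (negative regulators) or below -1.56, the Tlr4 control median (positive regulators); activity score 50 or more; control wells not called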
- Calls: active = hit (p65 shift raised or lowered); inactive = no clear change
The whole screen tested about 17,000 reagents; below is an unselected part. In the full data, 762 (4.5%) got an active call. 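Active calls include both raised and lowered p65 entry, mostly lowered; wells with fewer than 50 cells lack a z-score.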 Raw values are not corrected between plates. A number with no mark means an inactive call. No sequences are given here.

C1qtnf7 (C1q and tumor necrosis factor related protein 7) gave p65 translocation robust z-score 1.63; nuclear/cytoplasmic p65 ratio, rep 1 = 1.62; nuclear/cytoplasmic p65 ratio, rep 2 = 1.78; low cell count flag enough cells to score.
After knock-down of Ndufs4 (NADH:ubiquinone oxidoreductase core subunit S4), the record shows p65 translocation robust z-score 0.63; nuclear/cytoplasmic p65 ratio, rep 1 = 1.52; nuclear/cytoplasmic p65 ratio, rep 2 = 1.42; low cell count flag enough cells to score.
After knock-down of Gdf6 (growth differentiation factor 6), the record shows p65 translocation robust z-score -0.75; nuclear/cytoplasmic p65 ratio, rep 1 = 1.43; nuclear/cytoplasmic p65 ratio, rep 2 = 1.41; low cell count flag enough cells to score.
Silencing of Nicn1 (nicolin 1) resulted in: p65 translocation robust z-score 0.19; nuclear/cytoplasmic p65 ratio, rep 1 = 1.72; nuclear/cytoplasmic p65 ratio, rep 2 = 1.57; low cell count flag enough cells to score.
Peli1 (pellino 1) gave p65 translocation robust z-score -1.91 (active); nuclear/cytoplasmic p65 ratio, rep 1 = 1.14; nuclear/cytoplasmic p65 ratio, rep 2 = 1.06; low cell count flag enough cells to score.
Against Drosha (drosha, ribonuclease type III), the entry reads p65 translocation robust z-score -2.63 (active); nuclear/cytoplasmic p65 ratio, rep 1 = 1.19; nuclear/cytoplasmic p65 ratio, rep 2 = 0.967; low cell count flag enough cells to score.
With knock-down of Suds3 (suppressor of defective silencing 3 homolog (S. cerevisiae)) the results were nuclear/cytoplasmic p65 ratio, rep 1 = 1.46; nuclear/cytoplasmic p65 ratio, rep 2 = 1.13; low cell count flag fewer than 50 cells per well; well left out of scoring.
Otub2 (OTU domain, ubiquitin aldehyde binding 2) showed nuclear/cytoplasmic p65 ratio, rep 1 = 1.07; nuclear/cytoplasmic p65 ratio, rep 2 = 0.95; low cell count flag fewer than 50 cells per well; well left out of scoring.
Sc5d (sterol-C5-desaturase) showed p65 translocation robust z-score -0.22; nuclear/cytoplasmic p65 ratio, rep 1 = 1.39; nuclear/cytoplasmic p65 ratio, rep 2 = 1.19; low cell count flag enough cells to score.
2010106E10Rik (RIKEN cDNA 2010106E10 gene) scored nuclear/cytoplasmic p65 ratio, rep 1 = 1.76; nuclear/cytoplasmic p65 ratio, rep 2 = 1.56; low cell count flag fewer than 50 cells per well; well left out of scoring.
With knock-down of Arid2 (AT-rich interaction domain 2), the screen gave nuclear/cytoplasmic p65 ratio, rep 1 = 1.58; nuclear/cytoplasmic p65 ratio, rep 2 = 1.76; low cell count flag fewer than 50 cells per well; well left out of scoring.
With knock-down of Aldob (aldolase B, fructose-bisphosphate) the results were p65 translocation robust z-score -0.44; nuclear/cytoplasmic p65 ratio, rep 1 = 1.64; nuclear/cytoplasmic p65 ratio, rep 2 = 1.46; low cell count flag enough cells to score.

In a second layout: results already given
Gdf6 (growth differentiation factor 6)
- p65 translocation robust z-score: -0.75
- nuclear/cytoplasmic p65 ratio, rep 1: 1.43
- nuclear/cytoplasmic p65 ratio, rep 2: 1.41
- low cell count flag: enough cells to score

Nicn1 (nicolin 1)
- p65 translocation robust z-score: 0.19
- nuclear/cytoplasmic p65 ratio, rep 1: 1.72
- nuclear/cytoplasmic p65 ratio, rep 2: 1.57
- low cell count flag: enough cells to score
